PubChem BioAssay AID504764, Drosophila RNAi Screening Center – 2011
The deposit covers about 22,000 reagents; below is an unselected part of those with a known target gene and a result. In the full data, 403 (1.9%) were called active. 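Unnormalised raw counts per well; ratio z-scores behind the hit calls and whether each hit raises or lowers signal are not deposited.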 A number with no mark means an inactive call. Names joined by + are all predicted targets of the reagent. The record does not give: the amount of reagent.

Screen: 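Genes whose knock-down alters Notch-dependent transcription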 (primary screen)
System: Drosophila Kc167 cells
Knock-down reagent: long dsRNA against Drosophila genes
Timing: about 5 days (4 days dsRNA, then 24 h after transfection)
Challenge: transfection of constitutively active membrane-tethered Notch lacking the extracellular domain, read 24 h later
Measurement: 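Firefly luciferase from an E(spl)m3 reporter with active Notch, plus control-promoter and uninduced reporter wells for normalisation; unnormalised counts, duplicate wells a and b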
Scale: induced reporter light, run 1, well a and induced reporter light, run 1, well b: higher = more light from the Notch target reporter with active Notch; control promoter light, run 1, well a and control promoter light, run 1, well b: higher = more light from the viral control promoter (cell number, transfection, viability); uninduced reporter light, run 1, well a: higher = more light from the Notch target reporter without active Notch
Hit rule: 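Wells with low control signal or poorly matching duplicates excluded; duplicates averaged; per source plate, z beyond ±2 for induced/control log2 ratio or beyond ±1.8 for induced/uninduced marks a hit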
Meaning of the calls: active = modifier hit (raised or lowered Notch signal); inactive = not a hit

gene,dsRNA,"induced reporter light, run 1, well a","induced reporter light, run 1, well b","control promoter light, run 1, well a","control promoter light, run 1, well b","uninduced reporter light, run 1, well a"
CG7255 (GeneID 39662),DRSC10790,1.21e5,1.19e5,77615,1.02e5,9355
CG11089 + CG31381,DRSC13690,2.00e5,1.78e5,1.92e5,1.77e5,17990
CG11089 + CG31381,DRSC14290,1.95e5,1.86e5,2.21e5,2.42e5,14505
CG31673 (GeneID 35348),DRSC03207,1.42e5,1.35e5,1.21e5,1.10e5,9630
Sting (GeneID 36016),DRSC06615,2.64e5,2.25e5,2.32e5,2.61e5,21200
CG32733 (retired record) (GeneID 318179),DRSC17481,73900,73775,65015,51795,7350
CG12560 (GeneID 34092),DRSC02174,1.32e5,1.95e5,75075,1.10e5,21065
Prx4 (GeneID 53577),DRSC08668,1.17e5,92015,2.34e5,1.57e5,7030
CG15011 (GeneID 38518),DRSC08464,1.58e5,1.45e5,1.06e5,54700,13100
Ptth (GeneID 33238),DRSC00356,1.18e5,1.05e5,92695,47010,7965
Cwc25 (GeneID 33460),DRSC00545,27720,21325,20500,15910,1750
dtr (GeneID 318856),DRSC01847,84895,1.17e5,77215,86325,9865
CG15535 (GeneID 43608),DRSC15071,1.39e5 (active),1.48e5,1.41e5,1.29e5,12030
CHKov1 (GeneID 43067),DRSC01566,58425,60425,63985,80195,6215
CHKov1 (GeneID 43067),DRSC01696,57935,67415,56695,51465,5015
CHKov1 (GeneID 43067),DRSC14258,1.38e5,1.35e5,1.93e5,1.72e5,10670
CHKov1 (GeneID 43067),DRSC20937,2.10e5,1.94e5,3.10e5,3.16e5,19490
CG4968 (GeneID 34384),DRSC02794,3.14e5,2.82e5,2.52e5,2.61e5,22485
CG7573 (GeneID 39272),DRSC10884,1.04e5,1.04e5,1.98e5,1.17e5,6470
CG40245 (retired record) (GeneID 3354884),DRSC21012,2.52e5,2.41e5,3.61e5,3.98e5,16860
CG13494 (GeneID 37497),DRSC04139,45535,33365,39150,31185,2060
pwn (GeneID 44011),DRSC06035,2.25e5,1.96e5,2.50e5,2.32e5,19280
CG10365 (GeneID 42801),DRSC14234,2.28e5,1.98e5,2.46e5,2.02e5,17840
CG2772 (GeneID 33559),DRSC00530,2.35e5,1.85e5,2.07e5,2.18e5,12230
Sec24CD (GeneID 33409),DRSC00300,2.29e5,1.80e5,1.96e5,1.89e5,16930
CG13309 (GeneID 39012),DRSC09980,1.42e5,1.51e5,2.18e5,1.81e5,19715
Alms1b + Alms1a,DRSC18559,2.16e5,2.10e5,2.95e5,3.45e5,14285
yellow-e (GeneID 41653),DRSC12966,1.33e5,1.36e5,2.13e5,1.67e5,11250
yellow-e (GeneID 41653),DRSC16563,2.41e5,2.35e5,2.63e5,2.40e5,18800
nopo (GeneID 37083),DRSC06918,97970,99400,1.82e5,2.25e5,6715
TwdlO (GeneID 43204),DRSC16043,1.44e5,1.60e5,1.78e5,1.86e5,14020
CG14418 (GeneID 31275),DRSC18637,21205,22878,33695,33085,3770
CG42820 + CG42819,DRSC02264,1.64e5,2.09e5,1.33e5,1.46e5,24715
CG42820 + CG42819,DRSC02265,1.54e5,1.89e5,94035,1.13e5,16835

Entries above marked active:
gene,dsRNA,"induced reporter light, run 1, well a","induced reporter light, run 1, well b","control promoter light, run 1, well a","control promoter light, run 1, well b","uninduced reporter light, run 1, well a"
CG15535 (GeneID 43608),DRSC15071,1.39e5 (active),1.48e5,1.41e5,1.29e5,12030
